Test results published in PubChem BioAssay (NCATS).
This list was built around the results that the source calls inconclusive (neither active nor inactive); the mix of calls is not that of the screen. Where the call is inconclusive, the potency comes from a doubtful curve fit. Activity calls are given as the source filed them. Calls come from the whole dose curve; as a rule, active = well fitted cell-killing curve with a large enough effect; inconclusive = small, poorly fitted or top-dose-only effect, or effect the other way; inactive = flat fitted curve, though single readings scatter.

Test: qHTS screen for small molecules that inhibit ELG1-dependent DNA repair: Hit Confirmation with MMS Viability (AID 624251); note: nearly all actives have a fitted effect of over 60% in size
Details: Cell viability with MMS; series mostly up to 46.1 µM
Text: Cancer cells divide rapidly compared to normal cells in the body. During cell division, cancer cells need to duplicate their genome by DNA replication. The failure of genome duplication leads to cancer cells' death. Therefore, inhibitors of DNA replication could specifically kill cancer cells. Based on this concept, many chemotherapeutic agents were developed and have been used to treat cancer patients. However, there are a limited number of agents available in the clinical setting, and some of those that do exist have low efficacy and severe side effects. Therefore, if we can find the compounds that effectively block DNA replication either by directly damaging DNA or by inhibiting other cellular mechanisms, the options for cancer treatment will be broadened. With this in mind, we developed a quantitative high-throughput ELG1-luciferase reporter gene assay. Small molecules that specifically block ELG1 function in response to DNA damage can be identified by monitoring the suppression of luciferase activity. Since ELG1 defines a pathway for repairing DNA damage, agents blocking ELG1 function can be used to sensitize cancer cells to chemotherapeutic agents whose mechanism of action involves the induction of DNA damage.
NIH Molecular Libraries Probe Production Network [MLPCN]
NIH Chemical Genomics Center [NCGC]
Assay Provider: Kyungjae Myung, NHGRI, NIH
ELG1-luc HEK293T cells will be seeded in 1536-well plates at a density of 2,000 cells/well. Approximately 5 hours after plating, compounds will be added to the plate by pin tool transfer and MMS will be added by FRD dispenser (final concentration of MMS = 10 µM). 16 hours following the addition of the compounds, cell viability will be measured using Cell Titer Glo.
Potency is the fitted concentration of half-maximal effect.

Structure (SMILES)	Potency
COc1ccc(NC(=O)C2CCN(c3nc(C)nc4c3CCC4)CC2)cc1	active: 5 µM
COc1ccccc1NC(=O)N(Cc1ccco1)Cc1cc2ccc(C)c(C)c2[nH]c1=O	inconclusive: 3.97 µM [cytotoxic, full curve]
CN(C)S(=O)(=O)Oc1ccc(C(=O)Nc2ccc([N+](=O)[O-])cc2)cc1	inconclusive: 3.97 µM [cytotoxic, full curve]
COc1cc2c(C#CCCCO)c(-c3ccsc3)oc(=O)c2cc1OC	inconclusive: 19.9 µM [cytotoxic, partial curve, poor fit]
Cc1ccccc1OCc1nc2ccccc2c(=O)n1/N=C/c1cn[nH]c1-c1ccccc1	inconclusive: 35.4 µM [cytotoxic, partial curve, poor fit]
CCCCCn1c(N)c(-c2nc3ccccc3s2)c2c([N+](=O)[O-])nn(C)c(=O)c21	inconclusive: 35.4 µM [cytotoxic, single point]
CN1CCN(c2nc(-c3ccncc3)nc3ccccc23)CC1	inactive
O=C(Nc1ccccc1)c1nc[nH]c1C(=O)NCCCNC(=O)c1[nH]cnc1C(=O)Nc1ccccc1	inactive
CCC(C)NC(=O)c1oc2ccc(S(=O)(=O)N3CCC4(CC3)OCCO4)cc2c1C (stereo not given)	inactive
O=C(Nc1ccc(F)cc1)N(Cc1cccs1)Cc1cc2cc3c(cc2[nH]c1=O)OCO3	inconclusive: 25 µM [cytotoxic, single point]
COc1ccc2cc3c(N)nn(C(=O)c4ccccc4Cl)c3nc2c1	inactive
c1ccc(CC2CCN(c3ncnc4sccc34)CC2)cc1	active: 1.99 µM
CCOCCn1ccc2c(OCC(=O)Nc3cc(OC)ccc3OC)cccc2c1=O	inconclusive: 35.3 µM [cytotoxic, single point]
Cc1noc(/C=C/c2ccco2)c1S(=O)(=O)N1CCC(C(=O)N(C)Cc2ccccc2)CC1	inactive
CCn1cc(C(=O)NCC(OC)OC)c(=O)c2cc(S(=O)(=O)N3CCC(C)CC3)ccc21	inconclusive: 15.8 µM [cytotoxic, partial curve]
CCc1ccc2nc(SCC(=O)Nc3ccccc3N3CCOCC3)c(C#N)cc2c1	active: 11.2 µM
COc1cccc(CN(C)C(=O)C(CCSC)NS(=O)(=O)c2ccc3c(c2)OCCO3)c1OC (stereo not given)	inconclusive: 22.3 µM [cytotoxic, partial curve]
COc1ccc(NC(=O)c2sc3nc(N4CCOCC4)c4c(c3c2N)CC(C)(C)OC4)cc1	inactive
O=C1CC(N2CCN(c3ccccn3)CC2)C(=O)N1CC(c1ccccc1)c1ccccc1 (stereo not given)	inconclusive: 25 µM [cytotoxic, partial curve]
COc1ccc(OC[C@@H](O)CNC(=O)c2cccc3c2C(=O)c2ccc(-c4ccc(F)cc4OCc4ccccc4)cc2S3(=O)=O)cc1	inconclusive: 0.0281 µM [rising, full curve]

Reformatted in CSV form: entries from further up
Structure (SMILES),Potency
CN1CCN(c2nc(-c3ccncc3)nc3ccccc23)CC1,inactive
Cc1noc(/C=C/c2ccco2)c1S(=O)(=O)N1CCC(C(=O)N(C)Cc2ccccc2)CC1,inactive

(further entries)

Structure (SMILES)	Potency
COc1ccc(OC)c(CN2CCN(CC(=O)Nc3ccccc3C(=O)NC3CC3)CC2)c1	inconclusive: 15.8 µM [cytotoxic, partial curve, poor fit]
CC1CN(C(=O)COC(=O)/C=C/c2cccc([N+](=O)[O-])c2)CC(C)O1 (stereo not given)	inconclusive: 11.2 µM [cytotoxic, partial curve, poor fit]
CCOC(=O)N1CCN(C(=O)c2cc(COc3ccc4ncccc4c3)on2)CC1	active: 4.45 µM
CCc1ccc(N(CC)c2ncnc3nc[nH]c23)cc1	inactive
Cc1cc(S(=O)(=O)Nc2nc(CN3CCOCC3)nc3sc4c(c23)CCCC4)ccc1F	inactive
CC1(C)Cc2c(c(N3CCOCC3)nc3sc(C(=O)N4CCCCC4)c(N)c23)CO1	inactive
CSc1ncnc2c1ncn2C1OC(CO)C(O)C1O (stereo not given)	inconclusive: 8.89 µM [cytotoxic, partial curve]
CCC(C)[C@H]1CNCCN1CCc1cc(C(F)(F)F)cc(C(F)(F)F)c1 (stereo not given in full)	active: 22.3 µM
COc1ccc(NC(=O)C2CCN(c3ncnc4c3nc3n4CCCCC3)CC2)c(OC)c1	inconclusive: 28.1 µM [cytotoxic, single point]
CCc1c(C)nc2ccc(Br)cc2c1SCCC#N	inconclusive: 25 µM [cytotoxic, single point]
COc1cc(Cl)c(C)cc1NC(=O)CN(C)Cc1cccc(OC)c1OC	active: 14.1 µM
Cc1ccc(N(Cc2ccc(C(=O)Nc3ccccc3C(=O)NCc3ccco3)cc2)S(C)(=O)=O)cc1C	inactive
CCn1nc(C(=O)Nc2nc(-c3ccccn3)cs2)c2ccccc2c1=O	active: 12.5 µM
COc1ccc(/C(=N/OC(C)=O)c2nccc3cc(OC)c(OC)cc23)cc1OC	inactive
COCCCNc1nc(N)c([N+](=O)[O-])c(Nc2cc(OC)ccc2OC)n1	inactive
CCCCn1c(N)c(-c2nc3ccccc3o2)c2c([N+](=O)[O-])nn(C)c(=O)c21	inactive
CC12CCC(C(=O)N3CCN(c4ncccn4)CC3)(c3nc4ccccc4nc31)C2(C)C (stereo not given)	inactive
O=C(Nc1ccccc1)c1nc[nH]c1C(=O)NCCNC(=O)c1[nH]cnc1C(=O)Nc1ccccc1	inconclusive: 15.8 µM [cytotoxic, partial curve]
CCOC(=O)c1c(C)nc2sc3c(=O)n(-c4ccc(OC)cc4)cnc3c2c1-c1ccc(OC)cc1	inactive
Cc1oc(-c2ccc(Cl)cc2)nc1CN1CCCC(C(=O)N2CCN(C(=O)c3ccco3)CC2)C1 (stereo not given)	active: 1.58 µM
